PubChem BioAssay AID504774 | Drosophila RNAi Screening Center – 2011
The screen tested about 23,000 reagents; this is an unselected part of those that have a named target and a result. 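Values are quantile-normalised luminescence on an arbitrary scale; higher means more cells surviving MMS.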 The numbers tell different reagents against one gene apart. Names joined by + are all predicted targets of the reagent.

Aim: 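Fly genes whose loss alters survival after alkylation damage to DNA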 (primary screen)
System: Drosophila Kc167 cells
Knock-down reagent: long dsRNA against Drosophila genes, about 0.25 µg dsRNA per well
Timing: about 6 days: 3 days knock-down, then 3 days with or without MMS
Treatment: methyl methanesulphonate 0.004% (w/v) for 3 days after knock-down
Measurement: 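ATP-dependent luminescence as a measure of live cells in MMS-exposed wells, quantile normalised within each plate, with replicate values also given as a mean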
Direction: mean viability with MMS and viability with MMS: higher = more surviving cells after MMS

predicted target,reagent no.,mean viability with MMS,"viability with MMS, replicate 1","viability with MMS, replicate 2"
CG13676,1,3.32e6,3.83e6,3.61e6
CG30058 + CG34235 + CG34312,1,3.54e6,4.08e6,3.95e6
CG33639,1,3.59e6,4.05e6,4.07e6
CG33639,2,3.36e6,3.98e6,3.75e6
Glo1,1,3.52e6,3.87e6,4.12e6
Hsc70-4,1,3.11e6,3.55e6,3.58e6
CG13786,1,3.51e6,3.94e6,4.01e6
Dsk,1,3.59e6,4.05e6,4.08e6
DIP-theta,1,3.59e6,4.08e6,4.06e6
DIP-theta,2,3.68e6,4.18e6,4.12e6
DIP-theta,3,3.79e6,4.13e6,4.31e6
ksh,1,3.55e6,4.10e6,3.95e6
Oli,1,3.40e6,3.86e6,3.77e6
Ugt36F1,1,3.63e6,4.09e6,4.14e6
IP3K1,1,3.97e6,4.98e6,4.10e6
CG34460,1,3.59e6,4.26e6,3.86e6
CG42694,1,3.49e6,3.99e6,3.94e6
psh,1,3.45e6,3.90e6,3.91e6
mRpS25,1,3.68e6,4.13e6,4.15e6
dgt1,1,3.69e6,4.21e6,4.13e6
CG13674,1,3.36e6,3.69e6,3.87e6
CG17721,1,3.56e6,4.01e6,4.06e6
CycK,1,3.09e6,3.80e6,2.86e6
CG42241 (retired record),1,3.64e6,4.34e6,3.93e6
CG3662,1,3.76e6,4.19e6,4.39e6
drk,1,3.29e6,3.83e6,3.64e6
Rbbp5,1,3.47e6,4.02e6,3.84e6
CG14079,1,3.65e6,4.21e6,4.03e6

2 entries from above, showing only “viability with MMS, replicate 2”:
Hsc70-4 = 3.58e6
CG13786 = 4.01e6
